# According to patent US20140303228A1, “Biomarkers for Amyotrophic Lateral Sclerosis and Methods Using the Same” (METABOLON, INC., priority 2011, published 2014):
# The chains behind the UniProt entries cited, without tags or fusion partners. Where a name states a change or a piece, a line headed by the entry shows the natural chain unless it says otherwise.
# UniProt P01042: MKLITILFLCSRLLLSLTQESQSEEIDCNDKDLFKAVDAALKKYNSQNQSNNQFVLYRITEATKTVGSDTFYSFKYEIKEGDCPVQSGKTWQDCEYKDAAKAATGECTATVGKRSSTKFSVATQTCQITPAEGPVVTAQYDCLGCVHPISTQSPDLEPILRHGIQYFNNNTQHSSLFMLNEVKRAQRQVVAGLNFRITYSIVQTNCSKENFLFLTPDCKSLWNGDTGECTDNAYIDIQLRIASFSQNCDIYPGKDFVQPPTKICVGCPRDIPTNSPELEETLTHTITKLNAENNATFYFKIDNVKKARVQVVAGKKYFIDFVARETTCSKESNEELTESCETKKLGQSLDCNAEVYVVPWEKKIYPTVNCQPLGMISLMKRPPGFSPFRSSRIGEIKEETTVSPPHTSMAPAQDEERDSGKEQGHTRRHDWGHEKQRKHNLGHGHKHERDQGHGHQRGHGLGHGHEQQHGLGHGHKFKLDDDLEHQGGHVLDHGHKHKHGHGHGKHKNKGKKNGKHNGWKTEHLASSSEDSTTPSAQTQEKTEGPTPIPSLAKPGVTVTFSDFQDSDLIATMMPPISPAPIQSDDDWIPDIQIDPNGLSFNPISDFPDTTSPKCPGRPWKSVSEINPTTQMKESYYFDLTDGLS
# Assay: Metabolomic profiling of blood plasma samples, ALS vs. symptom mimic disease subjects (Tables 5, 9)
# Set-up: species or system human
# Details: blood plasma; ALS mean (172 subjects) vs symptom mimic disease mean (73 subjects); positive = increase in ALS; T-test
row,Compound,% Change in ALS [%]
1,CCCCC/C=C\C/C=C\C/C=C\C/C=C\CCCC(=O)O[C@H](CO)COP(=O)(O)OCCN [2-arachidonoylglycerophosphoethanolamine],18
2,CCCCCCCCCCCCCCCCC(O)C(=O)O (stereo not shown) [2-hydroxystearate],9
3,"CCCCCCCCCCCC(=O)O [laurate (12:0), laurate]",−8
4,OC[C@@H](O)[C@H](O)[C@@H](O)CO [xylitol],−14
5,C[C@]12CCC(=O)C=C1CC[C@@H]1[C@@H]2[C@@H](O)C[C@@]2(C)[C@H]1CC[C@]2(O)C(=O)CO [cortisol],8
6,O=S(=O)(O)Oc1ccccc1 [phenol sulfate],9
7,"CCCCCCCCCCCCCCCC(=O)OC [methyl palmitate (15 or 2), methyl palmitate]",5
8,C[C@H](CCC(=O)O)[C@H]1CC[C@H]2[C@@H]3[C@H](O)C[C@@H]4C[C@H](O)CC[C@]4(C)[C@H]3C[C@H](O)[C@]12C [cholate],14
9,13-HODE + 9-HODE,15
10,C[N+](C)(C)CC(O)CC(=O)[O-] (stereo not shown) [carnitine],4
11,CCCCCCCC/C=C\CCCCCCCC(=O)OC(CO)COP(=O)(O)OCCN (stereo not shown) [2-oleoylglycerophosphoethanolamine],10
12,"O=C(CCc1ccc(O)cc1)c1c(O)cc(O)cc1O [3-(4-hydroxyphenyl)-1-(2,4,6-trihydroxyphenyl)-1-propanone]",456
13,methylglutaroylcarnitine,−6
14,CCC(C)C(=O)OC(CC(=O)[O-])C[N+](C)(C)C (stereo not shown) [2-methylbutyroylcarnitine],−7
15,CCCCCC(O)CC(=O)O (stereo not shown) [3-hydroxyoctanoate],−5
16,CC(C)CCCCCCCCCCCCCCCC(=O)O [17-methylstearate],10
17,CCc1ccc(OS(=O)(=O)[O-])cc1.[K+] [4-ethylphenylsulfate],32
18,"CCCCCCCCCC(=O)O [caprate (10:0), caprate]",25
19,C[N+](C)(C)[C@@H](Cc1c[nH]c2ccccc12)C(=O)[O-] [tryptophan betaine],−18
20,O=C(O)CCCCCCCCCCC(=O)O [dodecanedioate],8
21,"CCCCCC/C=C\CCCCCCCCCC(=O)O [cis-vaccenate (18:1n7), cis-vaccenate]",15

row,Compound,% Change in ALS [%]
1,Cn1cncc1C[C@H](N)C(=O)O [3-methylhistidine],−30
2,O=C(O)CCC(O)C(=O)O (stereo not shown) [2-hydroxyglutarate],10
3,CC(=O)N[C@@H](CCCN)C(=O)O [N-acetylornithine],−11
4,hydroxyisovaleroyl carnitine,−12
5,O=C(O)/C=C/C(=O)O [fumarate],6
6,CCC1=C(C)C(Cc2[nH]c(Cc3[nH]c(CC4NC(=O)C(C)=C4CC)c(C)c3CCC(=O)O)c(CCC(=O)O)c2C)NC1=O (stereo not shown) [urobilinogen],−25
7,CC(C)C[C@@H]1NC(=O)[C@@H]2CCCN2C1=O [cyclo(leu-pro)],8
8,"O=C(O)CCCCCCCCC(=O)O [sebacate (decanedioate), decanedioate]",8
9,pyroglutamine,−25
10,taurocholenate sulfate,15
11,CC(=O)Nc1ccc(O)c(SC[C@H](N)C(=O)O)c1 [3-(cystein-S-yl)acetaminophen],−37
12,glycocholenate sulfate,20
13,O=C(O)Cc1ccc(O)cc1 [4-hydroxyphenylacetate],−13
14,CCCCCCCC(=O)O[C@H](CC(=O)O)C[N+](C)(C)C [octanoylcarnitine],−9
15,CCCCCCCC/C=C\CCCCCCCC(=O)OCC(O)COP(=O)(O)OCCN (stereo not shown) [1-oleoylglycerophosphoethanolamine],11
16,CC(C)[C@H](NC(=O)CC[C@H](N)C(=O)O)C(=O)O [gamma-glutamylvaline],28
17,pregn steroid monosulfate,10
18,CCCCCCCCCCCCCCC(=O)OCC(O)COP(=O)([O-])OCC[N+](C)(C)C (stereo not shown) [1-pentadecanoylglycerophosphocholine],5
19,glutaroyl carnitine,−8
20,"CCCCC/C=C\C/C=C\C/C=C\C/C=C\CCCCCC(=O)O [adrenate (22:4n6), adrenate]",15
21,O=C1NS(=O)(=O)c2ccccc21 [saccharin],−75

row,Compound,% Change in ALS [%]
1,andro steroid monosulfate [andro steroid monosulfate 2],11
2,C[N+](C)(C)CCCC(=O)[O-] [deoxycarnitine],−10
3,"Cn1c(=O)[nH]c2[nH]c(=O)n(C)c2c1=O [1,7-dimethylurate]",−20
4,Cn1cnc2c1c(=O)[nH]c(=O)n2C [theobromine],−43
5,docosapentaenoate [docosapentaenoate (n3 DPA; 22:5n3)],19
6,CCCCC/C=C\C/C=C\C/C=C\C/C=C\CCCC(=O)OC[C@@H](O)COP(=O)(O)OCCN [1-arachidonoylglycerophosphoethanolamine],10
7,N[C@@H](CO)C(=O)O [serine],11
8,"O[C@@H]1[C@@H](O)[C@@H]2OC[C@@H](O2)[C@H]1O [1,6-anhydroglucose]",9
9,"CC(O)CO (stereo not shown) [1,2-propanediol]",47
10,"O=C(CO)CO [1,3-dihydroxyacetone]",5
11,C[C@H](CCC(=O)NCC(=O)O)[C@H]1CC[C@H]2[C@@H]3CC[C@@H]4C[C@H](OS(=O)(=O)O)CC[C@]4(C)[C@H]3CC[C@]12C [glycolithocholate sulfate],11
12,CCCCCCCCCCCCCCCCCC(=O)OC[C@@H](O)COP(=O)(O)OC1[C@H](O)[C@H](O)C(O)[C@H](O)[C@H]1O (stereo partly shown) [1-stearoylglycerophosphoinositol],14
13,Cn1c(=O)[nH]c2ncn(C)c2c1=O [paraxanthine],−17.36
14,"bradykinin, des-arg(9) (RPPGFSPF; Bradykinin; UniProt P01042 381-388, looked up, fragment)",150
15,O=C(CO)[C@@H](O)[C@H](O)[C@H](O)CO [fructose],−31
16,1-eicosadienoylglycerophosphocholine,10
17,"[H]HWESASLLR[OH] (SEQ ID NO: 6): peptide biomarker measured in plasma, SEQ ID NO: 6 (free N-terminus, C-terminal acid; listed as Homo sapiens)",233
18,O=C(O)[C@H](O)[C@@H](O)[C@H](O)CO [xylonate],14
19,CC(C)[C@H](C)CC[C@@H](C)[C@H]1CC[C@H]2[C@@H]3CC=C4C[C@@H](O)CC[C@]4(C)[C@H]3CC[C@]12C [campesterol],11
20,CCCCCCCCCCCCCCC(O)C(=O)O (stereo not shown) [2-hydroxypalmitate],6
21,O=C(O)CCc1cccc(O)c1 [3-(3-hydroxyphenyl)propionate],−30

row,Compound,% Change in ALS [%]
1,CN1C(=O)CC[C@H]1c1cccnc1 [cotinine],92
2,Cn1c(=O)[nH]c2[nH]c(=O)[nH]c2c1=O [1-methylurate],−15
3,CCC(=O)C(=O)O [alpha-ketobutyrate],20
4,"bradykinin, hydroxy-pro(3)",117
5,CCCCCCCCCC(=O)O[C@H](CC(=O)[O-])C[N+](C)(C)C [decanoylcarnitine],−8
6,CSCC[C@H](NC(=O)CC[C@H](N)C(=O)O)C(=O)O [gamma-glutamylmethionine],5
7,CC(C)C[C@H](NC(=O)CC[C@H](N)C(=O)O)C(=O)O [gamma-glutamylleucine],14
8,"XHWESASXXR (SEQ ID NO: 7): peptide biomarker measured in plasma, SEQ ID NO: 7",138
9,"O=C1CCNC(=O)N1 [5,6-dihydrouracil]",27
10,NCC(=O)O [glycine],6
11,deoxycholate,8
12,O=C(O)[C@]1(O)C[C@@H](O)[C@@H](O)[C@H](O)C1 [quinate],−22
13,CCCCCC/C=C\CCCCCCCC(=O)OCC(O)COP(=O)([O-])OCC[N+](C)(C)C (stereo not shown) [1-palmitoleoylglycerophosphocholine],5
14,C[C@H](NC(=O)CC[C@H](N)C(=O)O)C(=O)O [gamma-glutamylalanine],−6
15,O=C(O)CCCCCCCCCCCCC(=O)O [tetradecanedioate],15
16,Cc1cc(O)cc2c1O[C@](C)(CCC[C@H](C)CCC[C@H](C)CCCC(C)C)CC2 [delta-tocopherol],−98
17,"C[C@@H](OS(=O)(=O)O)C1CC[C@H]2[C@@H]3CC[C@H]4C[C@H](OS(=O)(=O)O)CC[C@]4(C)[C@H]3CC[C@]12C (stereo partly drawn) [5alpha-pregnan-3beta,20alpha-diol disulfate]",−26
18,phosphate,11
19,CCCCCCCCCCCC(=O)O[C@H](CC(=O)[O-])C[N+](C)(C)C [laurylcarnitine],−6
20,dihomo-linolenate [dihomo-linolenate (20:3n3 or n6)],14

# Same assay, conditions: plasma; ALS patients relative to symptom mimic disease patients; Random Forest and/or Wilcoxon (FDR < 0.15)
row,Compound,Direction of change in ALS
1,O=C(O)CCCCCCCCCCC(=O)O [dodecanedioate],Higher
2,pyroglutamine,Lower
3,N[C@@H](CO)C(=O)O [serine],Higher
4,"CC(O)CO (stereo not shown) [1,2-propanediol]",Higher
5,CCCCCCCCCCCCCCCCCC(=O)OC[C@@H](O)COP(=O)(O)OC1[C@H](O)[C@H](O)C(O)[C@H](O)[C@H]1O (stereo partly shown) [1-stearoylglycerophosphoinositol],Higher
6,Cn1c(=O)[nH]c2ncn(C)c2c1=O [paraxanthine],Lower
7,Cn1c(=O)[nH]c2[nH]c(=O)[nH]c2c1=O [1-methylurate],Lower
8,CCC(=O)C(=O)O [alpha-ketobutyrate],Higher
9,"O=C1CCNC(=O)N1 [5,6-dihydrouracil]",Higher
10,Cc1cc(O)cc2c1O[C@](C)(CCC[C@H](C)CCC[C@H](C)CCCC(C)C)CC2 [delta-tocopherol],Lower
11,phosphate,Higher

# Where a name gives a salt, the structure may show the parent alone.
